This is an account of results in paper PMC6757435.

The chains behind the UniProt entries cited, without tags or fusion partners.
UniProt P27986: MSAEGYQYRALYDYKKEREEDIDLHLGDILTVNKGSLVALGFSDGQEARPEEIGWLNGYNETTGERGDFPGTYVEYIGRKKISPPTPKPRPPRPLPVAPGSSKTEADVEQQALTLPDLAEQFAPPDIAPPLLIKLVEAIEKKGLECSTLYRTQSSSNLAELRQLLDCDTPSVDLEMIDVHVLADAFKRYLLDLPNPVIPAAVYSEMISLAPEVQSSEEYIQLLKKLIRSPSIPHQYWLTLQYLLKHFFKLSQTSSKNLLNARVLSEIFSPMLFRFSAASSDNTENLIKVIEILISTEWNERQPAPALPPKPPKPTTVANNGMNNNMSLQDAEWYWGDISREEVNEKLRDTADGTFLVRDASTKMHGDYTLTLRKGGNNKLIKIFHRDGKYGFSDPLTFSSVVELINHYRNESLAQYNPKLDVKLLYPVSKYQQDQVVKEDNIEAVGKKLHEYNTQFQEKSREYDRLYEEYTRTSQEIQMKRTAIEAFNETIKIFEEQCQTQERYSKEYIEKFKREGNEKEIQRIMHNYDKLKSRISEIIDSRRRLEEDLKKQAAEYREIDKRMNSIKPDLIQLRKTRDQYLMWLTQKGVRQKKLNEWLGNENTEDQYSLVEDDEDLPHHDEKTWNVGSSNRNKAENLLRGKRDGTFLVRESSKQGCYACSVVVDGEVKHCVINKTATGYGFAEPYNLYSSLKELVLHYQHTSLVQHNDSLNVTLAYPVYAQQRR

The experiment deals with T1, Tuftelin (TUFT1) (human (endogenous in MDA-MB-231)) (UniProt Q9NNX1).
T1 sequence: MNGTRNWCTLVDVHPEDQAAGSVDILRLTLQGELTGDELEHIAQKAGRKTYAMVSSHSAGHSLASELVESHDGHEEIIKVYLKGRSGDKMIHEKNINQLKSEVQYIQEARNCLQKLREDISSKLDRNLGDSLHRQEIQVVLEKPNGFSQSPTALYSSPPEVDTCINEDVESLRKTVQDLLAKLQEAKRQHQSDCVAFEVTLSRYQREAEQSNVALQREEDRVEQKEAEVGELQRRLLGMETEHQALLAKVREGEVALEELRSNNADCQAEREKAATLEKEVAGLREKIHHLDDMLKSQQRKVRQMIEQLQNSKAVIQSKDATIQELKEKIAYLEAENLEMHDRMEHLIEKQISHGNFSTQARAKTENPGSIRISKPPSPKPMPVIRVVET
Description: co-IP; endogenous proteins in MDA-MB-231 lysate (20 mM Tris-HCl pH 7.4, 150 mM NaCl, 1% Triton X-100); antibody 2 h at 4 °C, protein G Plus-agarose 2 h, five washes with lysis buffer, immunoblot.

These are yes or no findings as the source states them, for the method shown. Binding seen in cells or lysates may run through a third protein. Some entries that bind do so weakly or less than the wild type.

As to p85α (from UniProt P27986 1-724), the binding entry was “binds”.
